Data published in PubChem BioAssay AID2685 (National Center for Advancing Translational Sciences (NCATS), 2010).
This is one part of the list. These are further read-outs of the screen, such as a control signal, another cell line or another target. No call is given for them. The list favours compounds with an active or inconclusive main result. Words in brackets tell the shape of the fitted curve; partial curves, single points and poor fits give uncertain potencies.

Experiment: qHTS Assay for Lipid Storage Modulators in Drosophila S3 Cells;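 for cell number change: cells counted by Cell Tracker Red CMTPX staining in the red channel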
Settings: BODIPY lipid droplet fluorescence, 18-24 h; for cell number change: measured here: cell count max response, cells fed with added oleic acid
How it was run: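 Drosophila S3 cells loaded with oleic acid (400 uM, as added) and compounds at several concentrations; lipid droplets imaged by 488-nm laser-scanning cytometry, 500–530 nm intensity and object ratio to cell channel. Percent activity normalized to 20 uM Triacsin C.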

[1] = measured here: lipid fluorescence (Fed channel) AC50, cells fed with added oleic acid
[2] = measured here: cell number channel AC50, cells fed with added oleic acid

SMILES	cell number change	AC50 [1]	AC50 [2]
CSc1ccccc1NC(=S)NC1CCCCC1	-24.3%	32.6 µM [falling, single point]	–
Cc1nc(NNC(=O)c2ccc([N+](=O)[O-])cc2)cc(-c2ccccc2)n1	-2.41%	6.51 µM [falling, single point]	–
N#C/C(=C\c1cn(CCOc2ccccc2)c2ccccc12)C(=O)NCc1ccco1	–	4.11 µM [rising, full curve, poor fit]	–
O=C(O)c1ccc(Cl)c(S(=O)(=O)Nc2ccc3cn[nH]c3c2)c1	-35.8%	0.651 µM [falling, full curve]	0.517 µM [falling, full curve]
CCN(CC(=O)NC(C)(C)C)C(=O)COc1c(Cl)cc(Cl)c2ccc(C)nc12	-38.4%	11.6 µM [falling, partial curve]	20.6 µM [falling, single point]
CC1CCCN(CCOCCOc2ccc(Cl)cc2Br)C1 (configuration not stated)	-2.96%	6.51 µM [falling, partial curve, poor fit]	–
Nn1c(SCC(=O)N2CCCc3ccccc32)nncc1=O	-22%	1.84 µM [falling, full curve, poor fit]	–
COc1ccc(C(CNC(=O)CN2C(=O)NC3(CC(C)CC(C)(C)C3)C2=O)N2CCOCC2)cc1 (configuration not stated)	–	0.731 µM [falling, single point]	–
CCCOc1cccc(C(=O)Nc2ccc3c(c2)OCCO3)c1	-8.73%	–	–
Nc1nc(-c2cc(O)ccc2[N+](=O)[O-])cc(-c2ccccc2)c1[N+](=O)[O-]	-25.1%	5.8 µM [falling, full curve]	2.06 µM [falling, full curve, poor fit]
C=CCN(C(=O)CNC(=O)c1ccco1)C(C(=O)NC1CCCCC1)c1ccccc1F (configuration not stated)	–	6.51 µM [rising, single point]	–
COc1ccc2c(C(=O)CN3CCN(c4ccccc4)CC3)c[nH]c2c1	32.1%	20.6 µM [rising, single point]	2.59 µM [rising, full curve]
COc1ccc([C@H]2[C@H](C(=O)C(C)(C)C)N3N=Cc4ccccc4C3C23C(=O)OC(C)(C)OC3=O)cc1 (some centres not stated)	-23.1%	2.59 µM [rising, partial curve, poor fit]	6.51 µM [rising, single point]
COc1ccc(C2CC(=O)c3cnc(NC(=O)c4cc(OC)cc(OC)c4)nc3C2)cc1 (configuration not stated)	85.4%	0.58 µM [rising, partial curve]	18.4 µM [rising, partial curve]
COCC(C)OC(=O)c1c(N)n(CC(C)C)c2nc3ccccc3nc12 (configuration not stated)	–	16.4 µM [rising, single point]	–
O=C(Nc1ccccc1)Nc1ccc2ocnc2c1	37.7%	–	–
CCOC(=O)c1ccc(N2C(=O)CC(N3CCC(O)(c4ccc(Cl)cc4)CC3)C2=O)cc1 (configuration not stated)	-10.6%	23.1 µM [falling, partial curve, poor fit]	–
Cc1cc(C)c2c(=O)[nH]n(C3CC(C)N(C)CC3C)c2n1 (configuration not stated)	-41.7%	–	3.66 µM [falling, full curve]
COc1ccc(-c2noc(CN(C)C(=O)Nc3ccccc3)n2)cc1	8.78%	0.103 µM [rising, full curve]	–
NC(=O)COc1ccc(C23CC4CC(CC(C4)C2)C3)cc1	-23.9%	0.517 µM [falling, full curve, poor fit]	0.517 µM [falling, full curve, poor fit]
COc1ccc(S(=O)(=O)N(CC(=O)N2CCN(c3ccccc3)CC2)c2ccccc2)cc1	–	0.58 µM [rising, single point]	–
CC(OC(=O)CNS(=O)(=O)/C=C/c1ccccc1)C(=O)Nc1ccc(S(=O)(=O)N2CCCC2)cc1 (configuration not stated)	–	–	6.51 µM [falling, partial curve, poor fit]
COc1ccc(-n2c(=O)/c(=C\c3cccs3)s/c2=C(/C#N)C(=O)N2CCN(C)CC2)cc1	20.4%	6.51 µM [falling, single point]	–
Nc1cccc(-c2nc3cc(S(=O)(=O)c4ccc5oc(-c6cccc(N)c6)nc5c4)ccc3o2)c1	-88.7%	2.06 µM [falling, full curve]	2.06 µM [falling, full curve]
O=C(NC(=S)Nc1cccc(NC(=O)c2ccccc2Cl)c1)c1cccs1	3.21%	16.4 µM [rising, single point]	–
COc1ccc(CNC(=O)CSCc2cnn(-c3ccccc3)c2-n2cccc2)cc1	55.1%	14.6 µM [rising, single point]	23.1 µM [rising, single point]
CC(=O)Nc1ccc(S(=O)(=O)N2CCC(C(=O)NCCC(=O)NCc3ccccc3)CC2)cc1	-23.8%	–	–
Cn1c(CNC(=O)c2ccco2)nnc1SCC(=O)c1ccc(Br)cc1	17.1%	29.1 µM [rising, single point]	–

Only AC50 [2] and AC50 [1] (five entries from above):
SMILES	AC50 [2]	AC50 [1]
COc1ccc(S(=O)(=O)N(CC(=O)N2CCN(c3ccccc3)CC2)c2ccccc2)cc1	–	0.58 µM [rising, single point]
CC(OC(=O)CNS(=O)(=O)/C=C/c1ccccc1)C(=O)Nc1ccc(S(=O)(=O)N2CCCC2)cc1 (configuration not stated)	6.51 µM [falling, partial curve, poor fit]	–
COc1ccc(-n2c(=O)/c(=C\c3cccs3)s/c2=C(/C#N)C(=O)N2CCN(C)CC2)cc1	–	6.51 µM [falling, single point]
Nc1cccc(-c2nc3cc(S(=O)(=O)c4ccc5oc(-c6cccc(N)c6)nc5c4)ccc3o2)c1	2.06 µM [falling, full curve]	2.06 µM [falling, full curve]
O=C(NC(=S)Nc1cccc(NC(=O)c2ccccc2Cl)c1)c1cccs1	–	16.4 µM [rising, single point]

Remaining list, next part:

SMILES	cell number change	AC50 [1]	AC50 [2]
CCOC(=O)c1c(N)nn(C(=O)C(C)C)c1-c1ccccc1	-71.5%	6.51 µM [falling, partial curve, poor fit]	4.11 µM [falling, partial curve, poor fit]
Cc1noc(C(=O)Nc2ccc(Cl)cc2)c1Cl	15.3%	–	–
Cn1nnnc1P(=O)(c1ccccc1)c1ccccc1	1.3%	2.31 µM [falling, full curve]	–
Cc1cc(C)cc(N(CC(=O)NCC2CCCO2)C(=O)CCC(=O)Nc2cc(C)on2)c1 (configuration not stated)	30.6%	18.4 µM [rising, partial curve]	16.4 µM [rising, single point]
CC(=O)CC1(C)OC(N)=C(C#N)C1(C#N)C#N (configuration not stated)	-20.2%	–	–
CSc1nc2ccc(S(=O)(=O)N3CCCC3)cc2s1	–	0.0291 µM [falling, full curve, poor fit]	–
Cc1cccc(OCC(=O)N/N=C\c2cc3c(cc2[N+](=O)[O-])OCO3)c1C	5.99%	0.082 µM [rising, full curve, poor fit]	0.116 µM [rising, full curve, poor fit]
COc1ccc2cc(C(=O)/C=C/c3cc(OC)c(O)c(OC)c3)ccc2c1	-32.1%	–	32.6 µM [falling, single point]
Cc1cc(S(=O)(=O)N2CCOCC2)ccc1OCC(=O)N1CCCC1	9.66%	–	–
O=C(CCC1CC(=O)Nc2ccccc21)NCc1ccccc1 (configuration not stated)	40.8%	14.6 µM [rising, partial curve]	9.2 µM [rising, partial curve, poor fit]
COCCn1c(=N)c(C(=O)NCc2ccco2)cc2c(=O)n3ccccc3nc21	-1.48%	–	–
CCC(CC)C(=O)Nc1nnc(SCC(=O)N2CCN(c3ccccc3OC)CC2)s1	85.2%	18.4 µM [rising, partial curve]	13 µM [rising, partial curve]
CCCOc1ccc(C(F)(F)F)cc1NC(=O)CN1C(=O)C(=O)N(CC)C1=O	20%	0.00461 µM [rising, full curve, poor fit]	–
COc1ccc(-n2nnnc2SCC(=O)NCc2ccco2)cc1OC	93.3%	–	9.2 µM [rising, partial curve]
Cc1ccc(C(=O)N2CCN(S(=O)(=O)c3ccccc3[N+](=O)[O-])C2)cc1	17.4%	–	0.651 µM [rising, full curve, poor fit]
Cc1ccc(Nc2nnc(SCC(=O)NCc3ccco3)s2)cc1	-31.8%	11.6 µM [falling, partial curve]	2.31 µM [falling, full curve]
O=C(NCc1ccccc1)c1ccc(CNc2c(N3CCCC3)c(=O)c2=O)cc1	35.3%	18.4 µM [rising, single point]	0.92 µM [rising, full curve, poor fit]
O=C(NCC1CC1)NC(=O)c1c(F)cccc1Cl	14.2%	–	6.51 µM [rising, single point]
O=C(NNc1ncnc2sccc12)c1ccc(Cl)cc1	10.8%	29.1 µM [rising, single point]	4.11 µM [rising, single point]
Cc1[nH]c(=O)c(C#N)c(C)c1CCC(=O)Nc1cc(S(C)(=O)=O)ccc1Cl	20.2%	–	2.59 µM [rising, full curve, poor fit]
Cn1c(=O)c(C(=O)NCCc2ccc(Cl)cc2)c(O)c2ccccc21	-15%	20.6 µM [rising, single point]	–
Cc1ccc(-c2ccc(CCC(=O)O)n2C(C)C)cc1	–	0.00461 µM [rising, full curve, poor fit]	0.0058 µM [rising, full curve, poor fit]
CCOC(=O)CCc1c(C)nc(SCCN2CCCC2)c(C#N)c1C	-1.36%	3.66 µM [rising, single point]	–
CCN(CC)CCCN(Cc1cc2cc3c(cc2[nH]c1=O)OCO3)C(=S)NCCOC	6.57%	0.58 µM [rising, single point]	–
Cc1ccc(-c2[nH]nc3c2C(c2ccc(OC(=O)N4CCOCC4)cc2)C(C#N)=C(N)O3)cc1 (configuration not stated)	–	0.116 µM [falling, full curve, poor fit]	–
O=c1c2cn[nH]c2nc(SCc2ccc3c(c2)OCCO3)n1-c1ccccc1	51.7%	–	1.3 µM [rising, full curve]
CN(Cc1cccc(F)c1)C(=O)c1ccccc1Sc1ccccc1C#N	-25.9%	4.61 µM [falling, single point]	–
